# Results are given in words; binding and its absence hold for the method and conditions named. Binding seen in cells or lysates may run through a third protein. Some entries that bind do so weakly or less than the wild type. For some of these results: Sequences can lack the tags named with a protein.
# Chains of the proteins cited; added tags and fusions are not shown.
# UniProt P11440: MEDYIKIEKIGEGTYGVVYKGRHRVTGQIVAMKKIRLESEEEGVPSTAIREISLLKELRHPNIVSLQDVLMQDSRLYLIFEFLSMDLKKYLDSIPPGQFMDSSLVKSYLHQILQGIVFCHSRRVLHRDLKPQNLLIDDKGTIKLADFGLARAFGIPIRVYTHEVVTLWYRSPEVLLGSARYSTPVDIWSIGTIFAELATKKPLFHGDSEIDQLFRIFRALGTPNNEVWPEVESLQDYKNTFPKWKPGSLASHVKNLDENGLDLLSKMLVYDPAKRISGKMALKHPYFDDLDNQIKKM
# UniProt Q9JI44: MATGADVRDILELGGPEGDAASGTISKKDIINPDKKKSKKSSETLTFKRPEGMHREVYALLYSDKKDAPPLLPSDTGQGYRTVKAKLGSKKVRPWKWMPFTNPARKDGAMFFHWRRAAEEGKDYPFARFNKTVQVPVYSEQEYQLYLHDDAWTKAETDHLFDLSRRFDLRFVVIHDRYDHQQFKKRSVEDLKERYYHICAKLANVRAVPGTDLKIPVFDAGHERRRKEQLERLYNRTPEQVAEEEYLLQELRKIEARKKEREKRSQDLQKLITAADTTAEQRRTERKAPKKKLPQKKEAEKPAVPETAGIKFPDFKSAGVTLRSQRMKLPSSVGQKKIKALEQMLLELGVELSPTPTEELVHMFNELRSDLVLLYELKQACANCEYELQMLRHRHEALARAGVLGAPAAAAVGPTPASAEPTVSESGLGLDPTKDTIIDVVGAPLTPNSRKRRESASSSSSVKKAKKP
# UniProt Q8CHK4: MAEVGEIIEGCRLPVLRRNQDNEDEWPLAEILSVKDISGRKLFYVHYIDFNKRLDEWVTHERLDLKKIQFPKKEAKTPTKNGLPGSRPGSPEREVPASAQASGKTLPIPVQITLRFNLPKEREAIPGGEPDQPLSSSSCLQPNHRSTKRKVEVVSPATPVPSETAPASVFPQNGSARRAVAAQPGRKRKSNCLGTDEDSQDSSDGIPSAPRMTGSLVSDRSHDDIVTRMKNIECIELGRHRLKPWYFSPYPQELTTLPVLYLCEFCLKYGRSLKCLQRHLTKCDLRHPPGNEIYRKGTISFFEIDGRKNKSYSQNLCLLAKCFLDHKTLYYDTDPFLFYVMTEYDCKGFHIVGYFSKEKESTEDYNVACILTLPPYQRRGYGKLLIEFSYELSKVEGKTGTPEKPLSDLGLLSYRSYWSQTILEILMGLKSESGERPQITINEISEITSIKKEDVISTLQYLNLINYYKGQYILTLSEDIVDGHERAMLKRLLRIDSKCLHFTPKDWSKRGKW
# UniProt Q9WTM5: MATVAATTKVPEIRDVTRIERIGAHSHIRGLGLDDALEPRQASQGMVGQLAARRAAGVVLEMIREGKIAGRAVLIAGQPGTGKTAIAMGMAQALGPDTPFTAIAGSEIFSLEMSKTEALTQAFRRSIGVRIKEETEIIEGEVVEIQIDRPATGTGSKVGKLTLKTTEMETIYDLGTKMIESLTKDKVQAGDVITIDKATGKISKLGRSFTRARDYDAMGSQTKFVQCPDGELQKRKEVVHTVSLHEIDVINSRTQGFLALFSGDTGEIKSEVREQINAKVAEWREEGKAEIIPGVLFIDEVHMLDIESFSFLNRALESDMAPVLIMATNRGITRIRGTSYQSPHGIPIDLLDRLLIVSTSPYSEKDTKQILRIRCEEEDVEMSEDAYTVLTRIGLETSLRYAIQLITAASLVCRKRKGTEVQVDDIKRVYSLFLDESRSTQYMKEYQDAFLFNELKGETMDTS
# UniProt P48432: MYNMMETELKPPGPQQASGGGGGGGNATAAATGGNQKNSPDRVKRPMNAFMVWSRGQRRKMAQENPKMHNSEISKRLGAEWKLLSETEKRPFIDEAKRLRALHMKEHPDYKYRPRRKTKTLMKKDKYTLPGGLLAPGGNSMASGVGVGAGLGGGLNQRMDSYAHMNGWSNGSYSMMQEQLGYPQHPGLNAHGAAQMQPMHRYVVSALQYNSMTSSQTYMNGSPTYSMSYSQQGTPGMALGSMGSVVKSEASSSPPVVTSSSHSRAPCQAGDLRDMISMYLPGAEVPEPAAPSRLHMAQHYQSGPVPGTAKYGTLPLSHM
# T1: Tfcp2l1 (transcription factor CP2‐like protein 1), endogenous in mESCs (mouse (endogenous in mESCs)) (UniProt Q3UNW5)
# T1 sequence: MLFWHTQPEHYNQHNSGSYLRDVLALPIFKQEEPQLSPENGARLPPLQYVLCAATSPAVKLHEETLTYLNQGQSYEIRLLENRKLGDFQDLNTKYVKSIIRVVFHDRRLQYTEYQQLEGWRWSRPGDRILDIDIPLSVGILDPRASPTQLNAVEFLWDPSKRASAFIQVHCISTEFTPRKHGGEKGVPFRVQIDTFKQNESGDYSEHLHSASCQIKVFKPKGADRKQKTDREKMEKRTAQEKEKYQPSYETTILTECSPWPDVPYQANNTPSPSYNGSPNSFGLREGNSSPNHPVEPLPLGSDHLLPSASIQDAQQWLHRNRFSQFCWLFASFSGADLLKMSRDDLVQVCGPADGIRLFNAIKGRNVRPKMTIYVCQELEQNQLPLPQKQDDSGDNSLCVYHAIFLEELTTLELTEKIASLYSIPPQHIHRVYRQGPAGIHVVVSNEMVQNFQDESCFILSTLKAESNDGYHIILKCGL
# T2: FLAG‐tagged Tfcp2l1 (transcription factor CP2‐like protein 1), murine (mouse) (UniProt Q3UNW5)
# T2 sequence: T1 sequence
# B1: homeobox protein NANOG (Nanog) (protein, UniProt Q80Z64 1-305)
# chain: MSVGLPGPHSLPSSEEASNSGNASSMPAVFHPENYSCLQGSATEMLCTEAASPRPSSEDLPLQGSPDSSTSPKQKLSSPEADKGPEEEENKVLARKQKMRTVFSQAQLCALKDRFQKQKYLSLQQMQELSSILNLSYKQVKTWFQNQRMKCKRWQKNQWLKTSNGLIQKGSAPVEYPSIHCSYPQGYLVNASGSLSMWGSQTWTNPTWSSQTWTNPTWNNQTWTNPTWSSQAWTAQSWNGQPWNAAPLHNFGEDFLQPYVQLQQNFSASDLEVNLEATRESHAHFSTPQALELFLNYSVTPPGEI
# Molecular target: T1, Tfcp2l1 (transcription factor CP2‐like protein 1), endogenous in mESCs (mouse (endogenous in mESCs))
# Test: co-IP; immunoprecipitation of endogenous proteins from mESC extracts; IP lysis buffer 50 mM Tris–Cl pH 7.4, 0.5% NP‐40, 150 mM NaCl
row,binding,Molecule
1,binds,"cyclin‐dependent kinase 1 (CDK1), in mESCs (from UniProt P11440 1-297) (enzyme)"

# Molecular target: T2, FLAG‐tagged Tfcp2l1 (transcription factor CP2‐like protein 1), murine (mouse)
# Test: co-IP; anti‐FLAG immunoprecipitation from extracts of mESCs stably expressing Flag‐Tfcp2l1 (control: Flag only); co-precipitated proteins detected with specific antibodies; IP lysis buffer 50 mM Tris–Cl pH 7.4, 0.5% NP‐40, 150 mM NaCl
row,binding,Molecule
1,binds,DNA methyltransferase 1‐associated protein 1 (DNMAP‐1) (from UniProt Q9JI44 1-468)
2,binds,histone acetyltransferase KAT5 (Tip60) (from UniProt Q8CHK4 1-513) (enzyme)
3,binds,RuvB‐like 2 (Ruvbl2) (from UniProt Q9WTM5 1-463)
4,binds,SRY‐box2 (SOX‐2) (from UniProt P48432 1-319)
5,binds,"cyclin‐dependent kinase 1 (CDK1), in mESCs (from UniProt P11440 1-297) (enzyme)"
6,binds,B1
